Measured values from article PMC4223017, “Structural Model of the hUbA1-UbcH10 Quaternary Complex: In Silico and Experimental Analysis of the Protein-Protein Interactions between E1, E2 and Ubiquitin” (PLoS ONE, 2014).
No constants are given. Whether binding was seen depends on the method and setting.

Biological target: T1, GST-UbcH10 (UniProt O00762 1-179)
T1 construct: UbcH10, a Ubiquitin Conjugation Enzyme (E2); PCR product cloned into pGEX-4T1; The GST tag is cleavable but the fusion GST-UbcH10 was coated on the wells; PDB 1I7K (used only for modelling) lacks the first 30 residues and has Ser114; nothing says that the ELISA construct has these limits; also called E2; recombinant GST-UbcH10; source: E. coli BL21 (DE3) RP, purified (GST-trap column, dialysed …)
T1 sequence (looked up): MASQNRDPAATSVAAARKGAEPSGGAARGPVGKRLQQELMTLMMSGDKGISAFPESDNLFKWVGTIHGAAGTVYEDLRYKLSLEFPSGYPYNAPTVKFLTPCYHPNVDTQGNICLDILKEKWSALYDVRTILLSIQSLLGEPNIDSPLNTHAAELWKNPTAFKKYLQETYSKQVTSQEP
Assay: ELISA; wells coated overnight at 4°C with 100 µg/ml GST-UbcH10 in PBS, 1 mM TCEP; biotinylated peptides at 2.2, 11, 22, 44, 108 µM in PBS (1 mM TCEP for U1 and ScrU1); detection with streptavidin-HRP, reading at 490 nm; apparent KD; both purified

B1: S2 peptide (hUbA1 SCCH region, helix H19, 649-662) (peptide)
peptide: RDEFEGLFKQPAEN
modifications: N-terminus biotinylated (N-(+)-biotinyl-6-aminocaproic acid); C-terminal amide
- binding: no binding (tested: 108 µM)
